Results from PMC4667695.
These are yes or no findings as the source states them, for the method shown. In cells and extracts the contact can be indirect. Here binding means that the protein was enriched with, or labelled near, the bait; the list need not be complete.

The chains behind the UniProt entries cited, without tags or fusion partners.
UniProt P49597: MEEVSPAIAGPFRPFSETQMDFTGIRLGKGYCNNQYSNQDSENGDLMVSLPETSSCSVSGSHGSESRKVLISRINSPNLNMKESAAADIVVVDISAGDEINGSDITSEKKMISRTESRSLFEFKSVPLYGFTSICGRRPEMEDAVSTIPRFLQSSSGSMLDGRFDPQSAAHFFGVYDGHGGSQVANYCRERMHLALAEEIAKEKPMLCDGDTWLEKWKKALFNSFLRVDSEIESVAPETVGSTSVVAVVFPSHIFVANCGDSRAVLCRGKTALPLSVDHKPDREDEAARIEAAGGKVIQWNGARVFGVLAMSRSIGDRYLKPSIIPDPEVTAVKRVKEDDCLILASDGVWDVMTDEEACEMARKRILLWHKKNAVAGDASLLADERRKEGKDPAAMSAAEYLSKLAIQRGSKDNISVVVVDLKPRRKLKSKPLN

Target: ABI1-Flag (Arabidopsis thaliana) (UniProt P49597)
Test: affinity purification with mass spectrometry; ProABI1:ABI1-Flag transgenic seedlings; lysate on Flag-beads 2.5 h at 4 °C, elution with Flag peptide, LC-MS/MS

binding: binds
B1: PUB12 (endogenous) (enzyme, UniProt Q9ZV31 1-654)
chain: MAKSEKHKLAQTLIDSINEIASISDSVTPMKKHCANLSRRLSLLLPMLEEIRDNQESSSEVVNALLSVKQSLLHAKDLLSFVSHVSKIYLVLERDQVMVKFQKVTSLLEQALSIIPYENLEISDELKEQVELVLVQLRRSLGKRGGDVYDDELYKDVLSLYSGRGSVMESDMVRRVAEKLQLMTITDLTQESLALLDMVSSSGGDDPGESFEKMSMVLKKIKDFVQTYNPNLDDAPLRLKSSLPKSRDDDRDMLIPPEEFRCPISLELMTDPVIVSSGQTYERECIKKWLEGGHLTCPKTQETLTSDIMTPNYVLRSLIAQWCESNGIEPPKRPNISQPSSKASSSSSAPDDEHNKIEELLLKLTSQQPEDRRSAAGEIRLLAKQNNHNRVAIAASGAIPLLVNLLTISNDSRTQEHAVTSILNLSICQENKGKIVYSSGAVPGIVHVLQKGSMEARENAAATLFSLSVIDENKVTIGAAGAIPPLVTLLSEGSQRGKKDAATALFNLCIFQGNKGKAVRAGLVPVLMRLLTEPESGMVDESLSILAILSSHPDGKSEVGAADAVPVLVDFIRSGSPRNKENSAAVLVHLCSWNQQHLIEAQKLGIMDLLIEMAENGTDRGKRKAAQLLNRFSRFNDQQKQHSGLGLEDQISLI
